PubChem BioAssay AID504764 | Drosophila RNAi Screening Center | 2011

Test: 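Genome-wide screen for regulators of Notch-driven gene expression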 (primary screen)
Cell system: Drosophila Kc167 cells
Knock-down reagent: long dsRNA against Drosophila genes
Timing: about 5 days (4 days dsRNA, then 24 h after transfection)
Treatment: transfection of constitutively active membrane-tethered Notch lacking the extracellular domain, read 24 h later
Detection: 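Light from a Notch-responsive E(spl)m3 luciferase reporter under active Notch, with control-promoter and no-Notch reporter wells to normalise; raw counts from paired wells a and b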
Direction: induced reporter light, run 1, well a and induced reporter light, run 1, well b: higher = more light from the Notch target reporter with active Notch; control promoter light, run 1, well a and control promoter light, run 1, well b: higher = more light from the viral control promoter (cell number, transfection, viability); uninduced reporter light, run 1, well a: higher = more light from the Notch target reporter without active Notch
Active means: 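Wells with low control signal or poorly matching duplicates excluded; duplicates averaged; per source plate, z beyond ±2 for induced/control log2 ratio or beyond ±1.8 for induced/uninduced marks a hit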
Calls: active = modifier hit (raised or lowered Notch signal); inactive = not a hit
In all, the deposit lists about 22,000 reagents; below is an unselected part of those that have a named target and a result. In the full data, 403 (1.9%) were called active. 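Unnormalised raw counts per well; ratio z-scores behind the hit calls and whether each hit raises or lowers signal are not deposited.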 Reagent sequences are not shown. Not stated in the record: the amount of reagent.

gene | DRSC id | induced reporter light, run 1, well a | induced reporter light, run 1, well b | control promoter light, run 1, well a | control promoter light, run 1, well b | uninduced reporter light, run 1, well a | Call
CG17994 | DRSC04877 | 1.58e5 | 1.40e5 | 1.62e5 | 1.63e5 | 8732 | inactive
PK1-R | DRSC16577 | 2.74e5 | 2.38e5 | 1.91e5 | 1.69e5 | 19855 | inactive
CG41520 | DRSC21102 | 88665 | 79640 | 1.11e5 | 98020 | 6300 | inactive
CG41520 | DRSC21103 | 92035 | 90505 | 1.24e5 | 1.32e5 | 10760 | inactive
Inos | DRSC07655 | 2.34e5 | 2.03e5 | 2.87e5 | 2.62e5 | 17635 | inactive
l(3)73Ah | DRSC11359 | 1.83e5 | 1.76e5 | 1.84e5 | 1.50e5 | 9700 | inactive
Polr2F | DRSC12366 | 37235 | 38370 | 33670 | 24295 | 4520 | inactive
CG13293 | DRSC09967 | 2.00e5 | 1.37e5 | 1.85e5 | 1.45e5 | 7530 | inactive
mRRF1 | DRSC10421 | 83985 | 1.29e5 | 85130 | 32280 | 7245 | inactive
ppk12 | DRSC04086 | 2.74e5 | 2.47e5 | 2.80e5 | 2.71e5 | 20225 | inactive
ApepP | DRSC01866 | 3.07e5 | 2.88e5 | 3.36e5 | 3.21e5 | 22070 | inactive
stum | DRSC04268 | 47965 | 54405 | 46455 | 46280 | 1892 | inactive
stum | DRSC04270 | 50995 | 52040 | 52270 | 42720 | 3735 | inactive
CG31296 | DRSC13092 | 88330 | 1.10e5 | 1.32e5 | 1.15e5 | 6705 | inactive
CG13123 | DRSC02219 | 1.81e5 | 1.86e5 | 1.19e5 | 1.59e5 | 22785 | inactive
ABCB7 | DRSC08603 | 85930 | 1.18e5 | 2.11e5 | 1.60e5 | 5610 | inactive
CG32440 | DRSC11480 | 2.31e5 | 2.78e5 | 3.15e5 | 3.06e5 | 20055 | inactive
CG17049 (retired record) | DRSC06650 | 88340 | 74610 | 85000 | 91745 | 7625 | inactive
Clk | DRSC11117 | 1.77e5 | 1.55e5 | 2.38e5 | 1.80e5 | 11560 | inactive
VhaPPA1-1 | DRSC16170 | 1.13e5 | 1.50e5 | 91925 | 93825 | 8815 | inactive
CG15635 | DRSC00470 | 1.40e5 | 1.13e5 | 1.35e5 | 1.44e5 | 8380 | inactive
para | DRSC19141 | 92910 | 91985 | 95365 | 91660 | 7360 | inactive
para | DRSC20360 | 98120 | 88670 | 95290 | 82465 | 13760 | inactive
Cirl | DRSC21942 | – | – | – | – | – | inactive
IscU | DRSC16572 | 68445 | 72410 | 54675 | 61320 | 6785 | inactive
srw | DRSC08201 | 56495 | 75055 | 1.20e5 | 73180 | 11200 | inactive
Cp36 | DRSC18452 | 1.35e5 | 1.35e5 | 2.38e5 | 3.11e5 | 11075 | inactive
CG44153 | DRSC02228 | 2.09e5 | 2.18e5 | 2.04e5 | 1.59e5 | 14815 | inactive
CG44153 | DRSC02229 | 1.50e5 | 1.56e5 | 81440 | 97625 | 21755 | inactive
CG44153 | DRSC02902 | 1.20e5 | 1.38e5 | 90385 | 1.12e5 | 18585 | inactive
CG44153 | DRSC02903 | 1.28e5 | 1.48e5 | 89755 | 1.08e5 | 20000 | inactive
CG5397 | DRSC00683 | 2.02e5 | 2.18e5 | 2.41e5 | 2.52e5 | 18400 | inactive
E(spl)m7-HLH | DRSC16696 | 1.86e5 | 1.75e5 | 2.22e5 | 2.99e5 | 16088 | inactive
CG4570 | DRSC15602 | 17965 | 17400 | 20330 | 14430 | 1050 | inactive
Rbp6 | DRSC09462 | 2.23e5 | 2.45e5 | 3.10e5 | 2.71e5 | 23605 | inactive
Rbp6 | DRSC09464 | 2.26e5 | 2.12e5 | 2.46e5 | 2.54e5 | 20950 | inactive
Rbp6 | DRSC10072 | 2.03e5 | 1.82e5 | 2.76e5 | 2.14e5 | 11615 | inactive
Rbp6 | DRSC10073 | 2.21e5 | 1.87e5 | 2.49e5 | 2.40e5 | 11375 | inactive
Rbp6 | DRSC10662 | 1.29e5 | 1.34e5 | 2.19e5 | 1.93e5 | 7570 | inactive
CycC | DRSC16619 | 1.00e5 | 90195 | 81940 | 80845 | 9505 | inactive
Or47b | DRSC07492 | 94090 | 1.06e5 | 1.12e5 | 1.20e5 | 9460 | inactive
pcx | DRSC18186 | 1.36e5 | 93015 | 2.93e5 | 2.86e5 | 8745 | active
pcx | DRSC18187 | 1.33e5 | 1.78e5 | 2.18e5 | 1.92e5 | 8305 | inactive
pcx | DRSC18188 | 1.10e5 | 1.19e5 | 1.95e5 | 1.35e5 | 7040 | inactive
pcx | DRSC18189 | 1.39e5 | 1.23e5 | 1.90e5 | 1.88e5 | 8945 | inactive
pcx | DRSC18190 | 1.06e5 | 1.16e5 | 1.61e5 | 2.20e5 | 6430 | inactive
pcx | DRSC18816 | 1.62e5 | 2.12e5 | 2.04e5 | 2.19e5 | 11960 | inactive
ND-23 | DRSC15526 | 1.98e5 | 2.33e5 | 3.01e5 | 3.68e5 | 16070 | inactive
CG10359 | DRSC08156 | 1.32e5 | 1.32e5 | 1.02e5 | 31380 | 13682 | inactive
Ac76E | DRSC09642 | 2.27e5 | 2.51e5 | 2.88e5 | 2.62e5 | 20832 | inactive
Ac76E | DRSC09662 | 1.10e5 | 1.09e5 | 61730 | 95680 | 9870 | inactive
SdhB | DRSC05018 | 1.61e5 | 1.93e5 | 1.43e5 | 1.43e5 | 13705 | inactive
SdhB | DRSC21367 | – | – | – | – | – | inactive
Men-b | DRSC16736 | 1.39e5 | 1.28e5 | 1.66e5 | 1.56e5 | 11650 | inactive
Hdc | DRSC07439 | 1.98e5 | 2.36e5 | 1.92e5 | 1.77e5 | 16465 | inactive
CG8343 | DRSC04905 | 1.68e5 | 1.53e5 | 1.41e5 | 1.52e5 | 12635 | inactive
pic | DRSC16639 | 66740 | 64335 | 43210 | 42810 | 6742 | inactive
run | DRSC20584 | 1.66e5 | 1.57e5 | 1.43e5 | 91760 | 11120 | inactive
cato | DRSC07589 | 1.20e5 | 98250 | 1.11e5 | 1.16e5 | 11535 | inactive
holn1 | DRSC02827 | 1.70e5 | 1.58e5 | 1.31e5 | 1.12e5 | 14025 | inactive
holn1 | DRSC22822 | – | – | – | – | – | inactive
Alp11 | DRSC20080 | 69810 | 73095 | 77470 | 64975 | 9595 | inactive
Vajk1 | DRSC01882 | 1.81e5 | 1.76e5 | 1.65e5 | 1.65e5 | 13805 | inactive
KaiR1D | DRSC15516 | 1.71e5 | 1.69e5 | 1.89e5 | 1.93e5 | 13000 | inactive

Quoted from above for reference:
gene | DRSC id | induced reporter light, run 1, well a | induced reporter light, run 1, well b | control promoter light, run 1, well a | control promoter light, run 1, well b | uninduced reporter light, run 1, well a | Call
CG17994 | DRSC04877 | 1.58e5 | 1.40e5 | 1.62e5 | 1.63e5 | 8732 | inactive
PK1-R | DRSC16577 | 2.74e5 | 2.38e5 | 1.91e5 | 1.69e5 | 19855 | inactive
CG41520 | DRSC21102 | 88665 | 79640 | 1.11e5 | 98020 | 6300 | inactive
CG41520 | DRSC21103 | 92035 | 90505 | 1.24e5 | 1.32e5 | 10760 | inactive
Inos | DRSC07655 | 2.34e5 | 2.03e5 | 2.87e5 | 2.62e5 | 17635 | inactive
l(3)73Ah | DRSC11359 | 1.83e5 | 1.76e5 | 1.84e5 | 1.50e5 | 9700 | inactive
Polr2F | DRSC12366 | 37235 | 38370 | 33670 | 24295 | 4520 | inactive
CG13293 | DRSC09967 | 2.00e5 | 1.37e5 | 1.85e5 | 1.45e5 | 7530 | inactive
mRRF1 | DRSC10421 | 83985 | 1.29e5 | 85130 | 32280 | 7245 | inactive
ppk12 | DRSC04086 | 2.74e5 | 2.47e5 | 2.80e5 | 2.71e5 | 20225 | inactive
ApepP | DRSC01866 | 3.07e5 | 2.88e5 | 3.36e5 | 3.21e5 | 22070 | inactive
